Reference: the supplement of paper PMC4635364
Where a name gives a salt, the structure may show the parent alone. The list shows a part of the results. Single values are uncertain here, since repeats match poorly.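 Cells: ReNCell VM human fetal ventral-midbrain neural progenitors, differentiated mitogen-free. Blinded raters compared doublecortin-stained (early neurons) or tyrosine hydroxylase-stained (dopaminergic neurons) images with untreated wells, where 0 means no change. After repeats and both raters were averaged, compounds scoring 2 or above became hits for retesting.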

Tests used:
[1] = tested on: ReNCell VM; assay: neuronal differentiation score (DCX+ cell fraction vs untreated, manual image score) (score (-3 to 3)); higher = more neuronal differentiation; conditions: 2 uM, 2 weeks
[2] = tested on: ReNCell VM; assay: dopaminergic neuron differentiation score (TH+ cell fraction vs untreated, manual image score) (score (0 to 3)); higher = more TH+ dopaminergic neuron differentiation; conditions: 2 uM, 4 weeks, BDNF 10 ng/ml + GDNF 10 ng/ml

CN[C@H]1CC[C@@H](c2ccc(Cl)c(Cl)c2)c2ccccc21 [Sertraline hydrochloride]
inactive: neuronal differentiation score ([1]; library: LOPAC) 0 | neuronal differentiation score ([1]; library: Tocriscreen) 0 | dopaminergic neuron differentiation score ([2]; library: LOPAC) 0 | dopaminergic neuron differentiation score ([2]; library: Tocriscreen) 0

O=C(O)c1ccccc1Nc1cccc(OCc2ccc3ccccc3n2)c1
inactive: neuronal differentiation score ([1]; library: LOPAC) 1 | neuronal differentiation score ([1]; library: Spectrum) 0 | dopaminergic neuron differentiation score ([2]; library: LOPAC) 0 | dopaminergic neuron differentiation score ([2]; library: Spectrum) 0

NCCc1c[nH]cn1 [Histamine dihydrochloride]
inactive: neuronal differentiation score ([1]; library: LOPAC) 0 | neuronal differentiation score ([1]; library: Tocriscreen) 0 | dopaminergic neuron differentiation score ([2]; library: LOPAC) 0 | dopaminergic neuron differentiation score ([2]; library: Tocriscreen) 0

COc1ccc(CCCOC(Cn2ccnc2)c2ccc(OC)cc2)cc1 (stereo not drawn)
inactive: neuronal differentiation score ([1]; library: LOPAC) 0 | neuronal differentiation score ([1]; library: Tocriscreen) 0 | dopaminergic neuron differentiation score ([2]; library: LOPAC) 0 | dopaminergic neuron differentiation score ([2]; library: Tocriscreen) 0

CN1CCc2cccc3c2[C@H]1Cc1ccc(O)c(O)c1-3 [R(-) Apomorphine hydrochloride hemihydrate]
inactive: neuronal differentiation score ([1]; library: Phytochemical) 0 | neuronal differentiation score ([1]; library: Prestwick) 0 | dopaminergic neuron differentiation score ([2]; library: Phytochemical) 0 | dopaminergic neuron differentiation score ([2]; library: Prestwick) 0

c1ccc2c(c1)CCCC2C1=NCCN1 (stereo not drawn) [Tetrahydrozoline hydrochloride]
inactive: neuronal differentiation score ([1]; library: LOPAC) 0 | neuronal differentiation score ([1]; library: Prestwick) 0 | dopaminergic neuron differentiation score ([2]; library: LOPAC) 0 | dopaminergic neuron differentiation score ([2]; library: Prestwick) 0

Cc1[nH]c(=O)c(C#N)cc1-c1ccncc1 [Milrinone]
inactive: neuronal differentiation score ([1]; library: LOPAC) 0 | neuronal differentiation score ([1]; library: Prestwick) 0 | dopaminergic neuron differentiation score ([2]; library: LOPAC) 0 | dopaminergic neuron differentiation score ([2]; library: Prestwick) 1

C[C@@H](N)[C@H]1CC[C@H](C(=O)Nc2ccncc2)CC1
inactive: neuronal differentiation score ([1]; library: LOPAC) 0 | neuronal differentiation score ([1]; library: Tocriscreen) -1 | dopaminergic neuron differentiation score ([2]; library: LOPAC) 0 | dopaminergic neuron differentiation score ([2]; library: Tocriscreen) 0

Clc1ccc2c(c1)C(N1CCNCC1)=Nc1ccccc1O2 [Amoxapine]
inactive: neuronal differentiation score ([1]; library: LOPAC) 0 | neuronal differentiation score ([1]; library: Prestwick) 0 | dopaminergic neuron differentiation score ([2]; library: LOPAC) 0 | dopaminergic neuron differentiation score ([2]; library: Prestwick) 0

CC[C@H](NC(=O)c1c(C)c(-c2ccccc2)nc2ccccc12)c1ccccc1
inactive: neuronal differentiation score ([1]; library: LOPAC) 0 | neuronal differentiation score ([1]; library: Tocriscreen) 0 | dopaminergic neuron differentiation score ([2]; library: LOPAC) 0 | dopaminergic neuron differentiation score ([2]; library: Tocriscreen) 0

CC1(C)O[C@@H]2[C@@H](CO[C@@]3(COS(N)(=O)=O)OC(C)(C)O[C@@H]23)O1 [Topiramate]
inactive: neuronal differentiation score ([1]; library: Prestwick) 0 | neuronal differentiation score ([1]; library: Tocriscreen) 0 | dopaminergic neuron differentiation score ([2]; library: Prestwick) 0 | dopaminergic neuron differentiation score ([2]; library: Tocriscreen) 0

CCCCCCCCCCCCCCCC(=O)NCCO [Palmitoylethanolamide]
inactive: neuronal differentiation score ([1]; library: LOPAC) 0 | neuronal differentiation score ([1]; library: Tocriscreen) 0 | dopaminergic neuron differentiation score ([2]; library: LOPAC) 0 | dopaminergic neuron differentiation score ([2]; library: Tocriscreen) 0

c1ccc2c(CC3=NCCN3)cccc2c1 [Naphazoline hydrochloride]
inactive: neuronal differentiation score ([1]; library: LOPAC) 0 | neuronal differentiation score ([1]; library: Prestwick) 0 | dopaminergic neuron differentiation score ([2]; library: LOPAC) 0 | dopaminergic neuron differentiation score ([2]; library: Prestwick) 0

O=c1[nH]c2cc(Cl)ccc2c(O)c1-c1cccc(Oc2ccccc2)c1
inactive: neuronal differentiation score ([1]; library: LOPAC) 0 | neuronal differentiation score ([1]; library: Tocriscreen) 0 | dopaminergic neuron differentiation score ([2]; library: LOPAC) 0 | dopaminergic neuron differentiation score ([2]; library: Tocriscreen) 0

CCC1(C)CC(=O)NC1=O (stereo not drawn) [Ethosuximide]
inactive: neuronal differentiation score ([1]; library: LOPAC) 0 | neuronal differentiation score ([1]; library: Prestwick) 0 | dopaminergic neuron differentiation score ([2]; library: LOPAC) 0 | dopaminergic neuron differentiation score ([2]; library: Prestwick) 0

CCCCNc1c(C(=O)OCC)c(C)nc2c1cnn2CC [Tracazolate hydrochloride]
inactive: neuronal differentiation score ([1]; library: Prestwick) 0 | neuronal differentiation score ([1]; library: Tocriscreen) 0 | dopaminergic neuron differentiation score ([2]; library: Prestwick) 1 | dopaminergic neuron differentiation score ([2]; library: Tocriscreen) 0

CN(CCOc1ccc(C[C@H](Nc2ccccc2C(=O)c2ccccc2)C(=O)O)cc1)c1ccccn1
inactive: neuronal differentiation score ([1]; library: LOPAC) 0 | neuronal differentiation score ([1]; library: Tocriscreen) 0 | dopaminergic neuron differentiation score ([2]; library: LOPAC) 0 | dopaminergic neuron differentiation score ([2]; library: Tocriscreen) 0

CN1CCN(C2=Nc3ccccc3Oc3ccc(Cl)cc32)CC1 [Loxapine succinate]
inactive: neuronal differentiation score ([1]; library: LOPAC) 1 | neuronal differentiation score ([1]; library: Prestwick) 0 | dopaminergic neuron differentiation score ([2]; library: LOPAC) 0 | dopaminergic neuron differentiation score ([2]; library: Prestwick) 0

CN(C)CCCC1(c2ccc(F)cc2)OCc2cc(C#N)ccc21 (stereo not drawn) [Citalopram hydrobromide]
inactive: neuronal differentiation score ([1]; library: LOPAC) 0 | neuronal differentiation score ([1]; library: Tocriscreen) 0 | dopaminergic neuron differentiation score ([2]; library: LOPAC) 0 | dopaminergic neuron differentiation score ([2]; library: Tocriscreen) 0

CCN(CC)CCOC(=O)C1(c2ccc([N+](=O)[O-])cc2)CCCC1 [Nitrocaramiphen hydrochloride]
inactive: neuronal differentiation score ([1]; library: Prestwick) 0 | neuronal differentiation score ([1]; library: Tocriscreen) 0 | dopaminergic neuron differentiation score ([2]; library: Prestwick) 0 | dopaminergic neuron differentiation score ([2]; library: Tocriscreen) 0

Oc1cc(O)cc(/C=C/c2ccc(O)c(O)c2)c1 [Piceatannol]
inactive: neuronal differentiation score ([1]; library: LOPAC) 0 | neuronal differentiation score ([1]; library: Tocriscreen) 0 | dopaminergic neuron differentiation score ([2]; library: LOPAC) 0 | dopaminergic neuron differentiation score ([2]; library: Tocriscreen) 0

CCCCCCCCc1ccc(-c2ccc(C(=O)O)cc2)cc1
inactive: neuronal differentiation score ([1]; library: LOPAC) 0 | neuronal differentiation score ([1]; library: Tocriscreen) 0 | dopaminergic neuron differentiation score ([2]; library: LOPAC) 0 | dopaminergic neuron differentiation score ([2]; library: Tocriscreen) 0

CC1(C)CCC2=C(O1)c1ccccc1C(=O)C2=O [beta-lapachone]
inactive: neuronal differentiation score ([1]; library: Natural) 0 | neuronal differentiation score ([1]; library: Phytochemical) 0 | dopaminergic neuron differentiation score ([2]; library: Natural) 0 | dopaminergic neuron differentiation score ([2]; library: Phytochemical) 0

CC(=O)S[C@@H]1CC2=CC(=O)CC[C@]2(C)[C@H]2CC[C@@]3(C)[C@@H](CC[C@@]34CCC(=O)O4)[C@H]12 [Spironolactone]
inactive: neuronal differentiation score ([1]; library: LOPAC) 0 | neuronal differentiation score ([1]; library: Prestwick) 0 | dopaminergic neuron differentiation score ([2]; library: LOPAC) 0 | dopaminergic neuron differentiation score ([2]; library: Prestwick) 0

COc1ccccc1N1CCN(CCN2C(=O)CC3(CCCC3)CC2=O)CC1 [BMY 7378 dihydrochloride]
inactive: neuronal differentiation score ([1]; library: LOPAC) 0 | neuronal differentiation score ([1]; library: Tocriscreen) 0 | dopaminergic neuron differentiation score ([2]; library: LOPAC) 0 | dopaminergic neuron differentiation score ([2]; library: Tocriscreen) 0

COC1(C2=NCCN2)COc2ccccc2O1 (stereo not drawn)
inactive: neuronal differentiation score ([1]; library: LOPAC) 0 | neuronal differentiation score ([1]; library: Tocriscreen) 0 | dopaminergic neuron differentiation score ([2]; library: LOPAC) 0 | dopaminergic neuron differentiation score ([2]; library: Tocriscreen) 0

O=C(O)COCCN1CCN(C(c2ccccc2)c2ccc(Cl)cc2)CC1 (stereo not drawn) [Cetirizine dihydrochloride]
inactive: neuronal differentiation score ([1]; library: Prestwick) 0 | neuronal differentiation score ([1]; library: Tocriscreen) 0 | dopaminergic neuron differentiation score ([2]; library: Prestwick) 0 | dopaminergic neuron differentiation score ([2]; library: Tocriscreen) 0

COc1ccc(CN(CCN(C)C)c2ccccn2)cc1 [Pyrilamine maleate]
inactive: neuronal differentiation score ([1]; library: LOPAC) -1 | neuronal differentiation score ([1]; library: Prestwick) 0 | dopaminergic neuron differentiation score ([2]; library: LOPAC) 0 | dopaminergic neuron differentiation score ([2]; library: Prestwick) 0

OC[C@H]1O[C@@H](n2cnc3c(N[C@H]4CCC[C@@H]4O)ncnc32)[C@H](O)[C@@H]1O
inactive: neuronal differentiation score ([1]; library: LOPAC) -2 | neuronal differentiation score ([1]; library: Tocriscreen) -3 | dopaminergic neuron differentiation score ([2]; library: LOPAC) 0 | dopaminergic neuron differentiation score ([2]; library: Tocriscreen) 0

CN1CC2c3ccccc3Oc3ccc(Cl)cc3C2C1 (stereo not drawn) [Asenapine maleate]
inactive: neuronal differentiation score ([1]; library: Prestwick) 0 | neuronal differentiation score ([1]; library: Tocriscreen) 0 | dopaminergic neuron differentiation score ([2]; library: Prestwick) 0 | dopaminergic neuron differentiation score ([2]; library: Tocriscreen) 0

CC#CCOC(=O)c1c(C)nc2sc3c(c2c1N)CCC(O)C3 (stereo not drawn)
inactive: neuronal differentiation score ([1]; library: LOPAC) 0 | neuronal differentiation score ([1]; library: Tocriscreen) 0 | dopaminergic neuron differentiation score ([2]; library: LOPAC) 0 | dopaminergic neuron differentiation score ([2]; library: Tocriscreen) 0

O=C(O)CCCC[C@@H]1SC[C@@H]2NC(=O)N[C@@H]21 [Biotin]
inactive: neuronal differentiation score ([1]; library: Phytochemical) 0 | neuronal differentiation score ([1]; library: Prestwick) 0 | dopaminergic neuron differentiation score ([2]; library: Phytochemical) 0 | dopaminergic neuron differentiation score ([2]; library: Prestwick) 0

COc1ccccc1OCCNCC(O)COc1cccc2[nH]c3ccccc3c12 (stereo not drawn) [Carvedilol]
inactive: neuronal differentiation score ([1]; library: Prestwick) 0 | neuronal differentiation score ([1]; library: Tocriscreen) 0 | dopaminergic neuron differentiation score ([2]; library: Prestwick) 0 | dopaminergic neuron differentiation score ([2]; library: Tocriscreen) 0

CCC(C)(C)C(=O)O[C@H]1C[C@@H](C)C=C2C=C[C@H](C)[C@H](CC[C@@H]3C[C@@H](O)CC(=O)O3)[C@H]21 [Simvastatin]
inactive: neuronal differentiation score ([1]; library: Prestwick) 0 | neuronal differentiation score ([1]; library: Tocriscreen) 0 | dopaminergic neuron differentiation score ([2]; library: Prestwick) 0 | dopaminergic neuron differentiation score ([2]; library: Tocriscreen) 0

CC[C@]12CCCN3CCc4c(n(c5ccccc45)C(=O)C1)[C@@H]32 [Eburnamonine (-)]
inactive: neuronal differentiation score ([1]; library: Phytochemical) 0 | neuronal differentiation score ([1]; library: Prestwick) 0 | dopaminergic neuron differentiation score ([2]; library: Phytochemical) 0 | dopaminergic neuron differentiation score ([2]; library: Prestwick) 0

CC(=N)NCc1cccc(CN)c1 [1400W dihydrochloride]
inactive: neuronal differentiation score ([1]; library: LOPAC) 0 | neuronal differentiation score ([1]; library: Tocriscreen) 0 | dopaminergic neuron differentiation score ([2]; library: LOPAC) 0 | dopaminergic neuron differentiation score ([2]; library: Tocriscreen) 0

CC(NCCc1ccc(O)cc1)C(O)c1ccc(O)cc1 (stereo not drawn) [Ritodrine hydrochloride]
inactive: neuronal differentiation score ([1]; library: LOPAC) 0 | neuronal differentiation score ([1]; library: Prestwick) 0 | dopaminergic neuron differentiation score ([2]; library: LOPAC) 0 | dopaminergic neuron differentiation score ([2]; library: Prestwick) 0

CNCCCN1c2ccccc2CCc2ccccc21 [Desipramine hydrochloride]
inactive: neuronal differentiation score ([1]; library: LOPAC) 0 | neuronal differentiation score ([1]; library: Prestwick) 0 | dopaminergic neuron differentiation score ([2]; library: LOPAC) 0 | dopaminergic neuron differentiation score ([2]; library: Prestwick) 0

O=C(NCCO[N+](=O)[O-])c1cccnc1 [Nicorandil]
inactive: neuronal differentiation score ([1]; library: Prestwick) 0 | neuronal differentiation score ([1]; library: Tocriscreen) 0 | dopaminergic neuron differentiation score ([2]; library: Prestwick) 0 | dopaminergic neuron differentiation score ([2]; library: Tocriscreen) 0

Nc1ccc(S(=O)(=O)Nc2ccnn2-c2ccccc2)cc1 [Sulfaphenazole]
inactive: neuronal differentiation score ([1]; library: LOPAC) 0 | neuronal differentiation score ([1]; library: Prestwick) 0 | dopaminergic neuron differentiation score ([2]; library: LOPAC) 0 | dopaminergic neuron differentiation score ([2]; library: Prestwick) 0

CC(=O)Nc1nnc(S(N)(=O)=O)s1 [Acetazolamide]
inactive: neuronal differentiation score ([1]; library: LOPAC) 0 | neuronal differentiation score ([1]; library: Prestwick) 0 | dopaminergic neuron differentiation score ([2]; library: LOPAC) 0 | dopaminergic neuron differentiation score ([2]; library: Prestwick) 0

CC(C)(Oc1ccc(C2CC2(Cl)Cl)cc1)C(=O)O (stereo not drawn) [Ciprofibrate]
inactive: neuronal differentiation score ([1]; library: LOPAC) 0 | neuronal differentiation score ([1]; library: Prestwick) 0 | dopaminergic neuron differentiation score ([2]; library: LOPAC) 0 | dopaminergic neuron differentiation score ([2]; library: Prestwick) 0
